This is one part of the list.
What was measured:
Experiment in all cases: log2 fold change, soluble protein after heating vs DMSO (PISA); higher = thermal stabilisation; K562 cells, 10 uM, 30 min; active = over 0.2 and 3.5 SD of the protein, either way, in both replicates (recomputed)
[1] = compound: C1=CC=C(C=C1)[C@H](COC2=CC3=C(C=C2)NC(=O)N3)NC(=O)C4=CC=CN(C4=O)CC5=CC(=C(C=C5)F)F
Outline: (§1)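 K562 cells (2×10^6 cells/mL) were treated with 10 μM compound for 30 min, and aliquots were heated for 3 min over 48°C-58°C. Pooled aliquots were extracted in PBS with 0.5% NP-40 at 4°C, and the supernatant after 21,000xg for 90 min was measured by TMTpro 16plex LC-MS/MS with channel sums equalised. Reported thermal stability, relative to control samples and from duplicates, is a log2 fold change.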

Chains of the proteins cited; added tags and fusions are not shown. Lines headed by an entry give the natural chain unless they say otherwise; changes in a name come on top.
UniProt Q5VVJ2: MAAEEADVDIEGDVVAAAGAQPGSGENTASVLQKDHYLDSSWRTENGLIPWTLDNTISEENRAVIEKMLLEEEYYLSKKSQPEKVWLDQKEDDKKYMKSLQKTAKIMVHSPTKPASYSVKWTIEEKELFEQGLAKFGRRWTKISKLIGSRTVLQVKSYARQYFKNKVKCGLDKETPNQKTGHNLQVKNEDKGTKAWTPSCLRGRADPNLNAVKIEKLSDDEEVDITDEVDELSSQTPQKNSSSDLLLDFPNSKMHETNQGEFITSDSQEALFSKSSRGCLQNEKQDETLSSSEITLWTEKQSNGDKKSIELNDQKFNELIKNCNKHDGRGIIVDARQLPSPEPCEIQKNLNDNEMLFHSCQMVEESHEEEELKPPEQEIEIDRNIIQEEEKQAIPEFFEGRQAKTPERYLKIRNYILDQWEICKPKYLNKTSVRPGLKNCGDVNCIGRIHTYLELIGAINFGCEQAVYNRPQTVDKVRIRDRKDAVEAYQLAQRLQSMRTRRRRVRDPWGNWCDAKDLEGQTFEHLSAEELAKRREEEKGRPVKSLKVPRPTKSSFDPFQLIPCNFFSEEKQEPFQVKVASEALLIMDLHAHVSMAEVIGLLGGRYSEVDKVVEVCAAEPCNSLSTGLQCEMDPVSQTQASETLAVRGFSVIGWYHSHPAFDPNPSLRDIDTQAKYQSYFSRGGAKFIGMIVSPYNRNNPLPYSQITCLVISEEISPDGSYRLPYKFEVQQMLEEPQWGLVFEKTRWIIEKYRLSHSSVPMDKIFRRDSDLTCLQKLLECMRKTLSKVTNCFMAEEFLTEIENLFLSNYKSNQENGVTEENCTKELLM
UniProt P52298: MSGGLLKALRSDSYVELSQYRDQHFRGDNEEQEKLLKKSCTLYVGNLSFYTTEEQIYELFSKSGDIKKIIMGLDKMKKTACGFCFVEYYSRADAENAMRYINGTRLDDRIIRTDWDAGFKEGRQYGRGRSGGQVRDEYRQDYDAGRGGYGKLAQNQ
UniProt Q9Y6Q9, whole entry, looked up: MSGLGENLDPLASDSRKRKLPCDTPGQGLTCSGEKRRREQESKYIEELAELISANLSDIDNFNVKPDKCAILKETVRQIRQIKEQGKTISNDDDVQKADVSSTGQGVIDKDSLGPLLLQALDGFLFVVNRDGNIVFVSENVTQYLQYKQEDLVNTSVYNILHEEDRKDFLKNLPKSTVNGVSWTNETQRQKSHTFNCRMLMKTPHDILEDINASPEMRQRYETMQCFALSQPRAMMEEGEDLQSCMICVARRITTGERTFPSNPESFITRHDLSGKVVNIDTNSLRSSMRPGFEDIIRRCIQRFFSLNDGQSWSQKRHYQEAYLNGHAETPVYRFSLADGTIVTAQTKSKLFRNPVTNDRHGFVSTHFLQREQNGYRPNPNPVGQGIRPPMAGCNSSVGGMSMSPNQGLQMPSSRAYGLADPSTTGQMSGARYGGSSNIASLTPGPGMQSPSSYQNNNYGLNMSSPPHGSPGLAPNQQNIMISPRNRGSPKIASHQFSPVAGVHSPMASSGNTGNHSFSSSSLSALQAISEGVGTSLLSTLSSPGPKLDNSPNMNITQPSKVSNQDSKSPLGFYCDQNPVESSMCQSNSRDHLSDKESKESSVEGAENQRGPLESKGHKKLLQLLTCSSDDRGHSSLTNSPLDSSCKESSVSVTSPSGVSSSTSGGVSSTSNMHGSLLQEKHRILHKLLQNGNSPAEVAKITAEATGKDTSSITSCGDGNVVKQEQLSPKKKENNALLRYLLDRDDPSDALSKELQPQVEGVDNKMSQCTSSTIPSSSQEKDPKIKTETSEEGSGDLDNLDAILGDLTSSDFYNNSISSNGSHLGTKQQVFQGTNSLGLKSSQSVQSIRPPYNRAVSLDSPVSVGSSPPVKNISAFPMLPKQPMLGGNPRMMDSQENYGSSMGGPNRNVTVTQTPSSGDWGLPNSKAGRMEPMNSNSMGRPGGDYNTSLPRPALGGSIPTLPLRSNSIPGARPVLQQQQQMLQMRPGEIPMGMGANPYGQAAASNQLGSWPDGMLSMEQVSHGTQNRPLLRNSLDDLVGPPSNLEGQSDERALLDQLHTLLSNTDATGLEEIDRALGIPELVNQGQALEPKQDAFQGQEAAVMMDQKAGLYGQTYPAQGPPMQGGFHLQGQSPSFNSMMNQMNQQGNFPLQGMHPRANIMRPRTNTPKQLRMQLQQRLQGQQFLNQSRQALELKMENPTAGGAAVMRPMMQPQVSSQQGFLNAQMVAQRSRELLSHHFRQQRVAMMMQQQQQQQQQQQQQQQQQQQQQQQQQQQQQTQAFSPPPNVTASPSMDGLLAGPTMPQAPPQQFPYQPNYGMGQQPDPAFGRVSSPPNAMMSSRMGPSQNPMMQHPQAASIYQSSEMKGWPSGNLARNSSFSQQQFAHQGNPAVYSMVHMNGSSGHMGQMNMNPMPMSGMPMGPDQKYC
UniProt Q5TEU4: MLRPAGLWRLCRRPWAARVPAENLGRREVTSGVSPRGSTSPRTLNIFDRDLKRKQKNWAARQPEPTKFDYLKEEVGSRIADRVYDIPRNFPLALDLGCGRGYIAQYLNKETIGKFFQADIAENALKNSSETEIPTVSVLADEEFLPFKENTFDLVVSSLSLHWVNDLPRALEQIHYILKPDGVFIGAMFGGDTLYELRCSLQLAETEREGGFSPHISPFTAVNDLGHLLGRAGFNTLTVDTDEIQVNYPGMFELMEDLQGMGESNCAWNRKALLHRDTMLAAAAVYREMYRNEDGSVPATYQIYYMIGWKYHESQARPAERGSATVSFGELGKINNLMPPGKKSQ
UniProt Q15843, whole entry, looked up: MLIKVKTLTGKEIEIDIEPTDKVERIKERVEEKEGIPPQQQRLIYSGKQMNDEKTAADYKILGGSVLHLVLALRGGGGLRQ
UniProt Q86Y39, whole entry, looked up: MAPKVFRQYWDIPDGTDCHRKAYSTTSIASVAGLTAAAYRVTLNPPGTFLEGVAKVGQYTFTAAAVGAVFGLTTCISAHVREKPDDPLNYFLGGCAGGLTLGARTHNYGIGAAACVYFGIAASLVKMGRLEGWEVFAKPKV
UniProt Q9H0A0: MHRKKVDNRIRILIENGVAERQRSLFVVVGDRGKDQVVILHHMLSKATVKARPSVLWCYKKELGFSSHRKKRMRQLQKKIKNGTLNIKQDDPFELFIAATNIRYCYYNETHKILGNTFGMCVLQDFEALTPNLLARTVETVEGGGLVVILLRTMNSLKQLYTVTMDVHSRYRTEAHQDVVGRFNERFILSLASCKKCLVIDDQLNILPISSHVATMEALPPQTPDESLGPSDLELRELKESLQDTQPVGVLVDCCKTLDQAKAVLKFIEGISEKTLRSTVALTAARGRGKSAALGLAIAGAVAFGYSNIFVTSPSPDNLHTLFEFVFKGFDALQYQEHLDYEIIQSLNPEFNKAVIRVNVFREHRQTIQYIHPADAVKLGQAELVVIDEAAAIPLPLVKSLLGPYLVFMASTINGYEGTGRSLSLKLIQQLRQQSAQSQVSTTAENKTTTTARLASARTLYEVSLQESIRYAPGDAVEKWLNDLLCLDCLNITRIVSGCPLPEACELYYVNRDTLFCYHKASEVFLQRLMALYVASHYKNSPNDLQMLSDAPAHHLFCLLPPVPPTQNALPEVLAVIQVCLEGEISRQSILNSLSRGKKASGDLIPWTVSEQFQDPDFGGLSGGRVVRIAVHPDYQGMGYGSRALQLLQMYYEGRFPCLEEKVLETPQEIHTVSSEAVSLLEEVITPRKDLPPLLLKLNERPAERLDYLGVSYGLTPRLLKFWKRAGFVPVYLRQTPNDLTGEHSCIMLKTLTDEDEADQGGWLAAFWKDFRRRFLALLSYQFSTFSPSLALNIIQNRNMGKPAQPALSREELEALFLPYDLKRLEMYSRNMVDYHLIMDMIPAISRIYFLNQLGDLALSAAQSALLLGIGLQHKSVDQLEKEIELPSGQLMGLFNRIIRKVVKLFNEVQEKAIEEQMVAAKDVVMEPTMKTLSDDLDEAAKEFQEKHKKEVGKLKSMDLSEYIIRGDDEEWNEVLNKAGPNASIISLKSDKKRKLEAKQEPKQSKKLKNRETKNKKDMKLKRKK
UniProt Q4G0N4: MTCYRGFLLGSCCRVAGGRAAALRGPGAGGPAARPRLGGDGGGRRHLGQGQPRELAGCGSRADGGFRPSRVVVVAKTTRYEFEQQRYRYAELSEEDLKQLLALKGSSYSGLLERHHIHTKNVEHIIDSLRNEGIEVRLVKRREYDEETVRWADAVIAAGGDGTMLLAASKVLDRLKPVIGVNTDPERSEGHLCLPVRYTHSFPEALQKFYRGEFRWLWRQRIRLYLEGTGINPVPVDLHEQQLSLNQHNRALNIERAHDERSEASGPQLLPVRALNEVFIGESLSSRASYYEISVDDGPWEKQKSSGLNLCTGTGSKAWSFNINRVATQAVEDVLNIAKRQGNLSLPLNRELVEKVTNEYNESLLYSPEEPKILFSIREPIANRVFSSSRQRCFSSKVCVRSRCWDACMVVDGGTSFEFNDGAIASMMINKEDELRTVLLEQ
UniProt Q8NI08: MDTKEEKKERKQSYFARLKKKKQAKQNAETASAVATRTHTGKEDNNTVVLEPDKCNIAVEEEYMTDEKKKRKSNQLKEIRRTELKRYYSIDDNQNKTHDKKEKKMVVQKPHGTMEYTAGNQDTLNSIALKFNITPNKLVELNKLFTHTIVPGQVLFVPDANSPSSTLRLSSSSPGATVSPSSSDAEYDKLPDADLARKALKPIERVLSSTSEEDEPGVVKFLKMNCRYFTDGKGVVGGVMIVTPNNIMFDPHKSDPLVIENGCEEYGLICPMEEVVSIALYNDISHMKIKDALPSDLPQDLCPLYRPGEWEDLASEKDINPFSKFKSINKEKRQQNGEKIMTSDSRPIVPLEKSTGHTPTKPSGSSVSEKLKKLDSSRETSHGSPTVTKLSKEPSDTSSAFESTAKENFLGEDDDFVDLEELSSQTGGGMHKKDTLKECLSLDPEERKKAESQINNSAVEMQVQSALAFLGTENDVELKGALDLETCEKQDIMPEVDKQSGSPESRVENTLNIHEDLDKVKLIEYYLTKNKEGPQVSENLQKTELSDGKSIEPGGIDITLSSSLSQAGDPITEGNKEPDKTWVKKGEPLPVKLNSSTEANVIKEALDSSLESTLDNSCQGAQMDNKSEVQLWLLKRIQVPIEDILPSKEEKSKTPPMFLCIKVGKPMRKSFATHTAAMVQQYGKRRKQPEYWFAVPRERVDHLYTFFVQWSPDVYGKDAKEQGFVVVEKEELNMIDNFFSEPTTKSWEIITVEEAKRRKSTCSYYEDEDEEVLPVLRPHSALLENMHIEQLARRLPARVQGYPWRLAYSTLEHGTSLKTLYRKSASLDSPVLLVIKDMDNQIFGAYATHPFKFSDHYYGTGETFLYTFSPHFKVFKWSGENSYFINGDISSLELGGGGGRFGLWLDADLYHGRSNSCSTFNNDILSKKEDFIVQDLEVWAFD

[2] = compound: CC1=C(SC2=C1C(=N[C@H](C3=NN=C(N32)C)CC(=O)N)C4=CC=C(C=C4)Cl)C
Outline: as §1

[3] = compound: CC1=C2C(=CC=C1)N=C(N(C2=O)C3=CC=CC=C3C)CN4C=NC5=C(N=CN=C54)N
Outline: as §1

[4] = compound: Cc1sc2c(c1C)C(c1ccc(Cl)cc1)=N[C@@H](CC(=O)OC(C)(C)C)c1nnc(C)n1-2
Outline: as §1

[5] = compound: c1ccc([C@@H]2C[C@H]2NC2CCNCC2)cc1
Outline: as §1

Measured: log2 fold change

MYSM1 (UniProt Q5VVJ2)
inactive: [1] 0.07

NCBP2 (UniProt P52298)
inactive: [1] -0.023 | [2] -0.03 | [3] 0.029 | [4] 0.035 | [5] -0.033

NCOA3 (UniProt Q9Y6Q9)
inactive: [1] -0.154 | [2] 0.185 | [3] 0.007 | [4] -0.091 | [5] -0.027

NDUFAF5 (UniProt Q5TEU4)
inactive: [1] 0.086 | [2] 0 | [3] 0.05 | [4] -0.001 | [5] 0.002

NEDD8 (UniProt Q15843)
inactive: [1] -0.005 | [2] 0.098 | [3] 0.077 | [4] 0.008 | [5] -0.065

NCK1 (UniProt P16333)
inactive: [1] -0.077 | [2] 0.025 | [3] 0.168 | [4] 0.044 | [5] -0.085

NDUFA11 (UniProt Q86Y39)
inactive: [1] 0.012 | [2] 0.01 | [3] 0.013 | [4] -0.057 | [5] 0.039

NAT10 (UniProt Q9H0A0)
inactive: [1] 0.01 | [2] -0.156 | [3] -0.18 | [4] 0.242 | [5] 0.034

NADK2 (UniProt Q4G0N4)
inactive: [1] 0.039 | [2] 0.016 | [3] 0.015 | [4] -0.022 | [5] 0.055

NCOA7 (UniProt Q8NI08)
inactive: [1] 0.03 | [2] 0.093 | [3] 0.036 | [4] 0.016 | [5] -0.058

Reference: the supplement of paper PMC10849652
